Test results taken from PubChem BioAssay AID2685 (National Center for Advancing Translational Sciences (NCATS), 2010).
The other results are listed elsewhere or left out. The main result of the screen is listed elsewhere. These columns were measured beside it and carry no call. The list favours compounds with an active or inconclusive main result. Potencies come from curve fits of mixed quality, noted in brackets.

Experiment: qHTS Assay for Lipid Storage Modulators in Drosophila S3 Cells;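 as to cell number change: cells counted by Cell Tracker Red CMTPX staining in the red channel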
Conditions: BODIPY lipid droplet fluorescence, 18-24 h; for cell number change: measured here: cell count max response, cells fed with added oleic acid
How it was run: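 Laser-scanning cytometry quantifies lipid droplet accumulation (500–530 nm total intensity; droplet/cell object ratio) in oleic acid-fed (400 uM added) Drosophila S3 cells treated with a concentration series. 20 uM Triacsin C defined 100% inhibition.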

[1] = measured here: lipid fluorescence (Fed channel) AC50, cells fed with added oleic acid
[2] = measured here: cell number channel AC50, cells fed with added oleic acid

SMILES	cell number change	AC50 [1]	AC50 [2]
Cc1ccc(C(=O)Nc2ccc(Cl)cn2)cc1	3.97%	29.1 µM [rising, single point]	
CC(C)CNC(=O)COC(=O)c1cc(Cl)cc(Cl)c1N	0.799%		
COc1ccc(S(=O)(=O)N2CCCC(C(=O)Nc3ccc4c(c3)OCCO4)C2)cc1 (stereo unspecified)	-29.9%	16.4 µM [falling, single point]	
c1ccc(-c2nnnn2CCOCCn2nnnc2-c2ccccc2)cc1	-1.25%		
Cc1ccc(/C=C/C(=O)O)cc1S(=O)(=O)Nc1ccc(C(=O)O)cc1	-31.9%	20.6 µM [falling, single point]	0.461 µM [falling, full curve, poor fit]
COC(=O)C1=C(COc2ccc(F)cc2)NC(=O)NC1c1ccc(C)cc1C (stereo unspecified)	-18.2%	32.6 µM [falling, partial curve]	
COCCCn1c(SCC(=O)Nc2ccc(NC(C)=O)cc2)nc2sc3c(c2c1=O)CCC3	16.2%	6.51 µM [falling, single point]	
c1ccc(-n2nnnc2Sc2ncnc3sc4c(c23)CCCC4)cc1	133%	8.2 µM [rising, partial curve, poor fit]	29.1 µM [rising, partial curve, poor fit]
CN1CCN(C(=S)c2ccc(OCC(=O)Nc3cccc(C(F)(F)F)c3)cc2)CC1	-39.1%	20.6 µM [falling, partial curve]	16.4 µM [falling, single point]
O=C(Nc1ccc2c(c1)N(S(=O)(=O)c1cccs1)CCC2)c1c(F)cccc1F		2.59 µM [rising, partial curve, poor fit]	
O=C(Nc1ccccc1)c1nsnc1C(=O)Nc1ccccc1	24.7%	0.116 µM [falling, full curve, poor fit]	
COc1ccc(CCC(=O)OCC(=O)Nc2c(C)nn(-c3ccccc3)c2C)cc1	17.3%		
CC(=O)c1cccc(NC(=O)N2CCOCC2)c1	17.3%	0.00411 µM [falling, full curve, poor fit]	
CCOC(=O)c1nnn(-c2nonc2N)c1CSc1ccc(C)cc1	-1.19%		0.103 µM [falling, partial curve, poor fit]
COc1cccc(NC(=O)Nc2ccc3c(c2)OCO3)c1	1.59%		
COc1ccc(S(=O)(=O)Nc2ccc(-n3cnnn3)cc2)cc1Br	-3.21%		
O=C(N/N=C/c1coc2ccccc2c1=O)c1cn(-c2ccccc2)nc1-c1ccc(F)cc1	12.9%	0.517 µM [falling, partial curve]	0.146 µM [falling, partial curve, poor fit]
Cc1nc(SCC(=O)Nc2ccc(CN3CCCC3)cc2)c2c(C)c(C)sc2n1	14.1%		
CC(C)CCOc1ccc(C2(C)NC(=O)NC2=O)cc1 (stereo unspecified)	4.99%		0.00651 µM [rising, full curve, poor fit]
COC(=O)[C@]1(C)N[C@H](c2ccc(-c3ccccc3)cc2)[C@@H]2C(=O)N(C)C(=O)[C@@H]21	0.99%		
CCc1nc2c(s1)CCc1onc(-c3ccc(Cl)cc3)c1-2	41.1%	25.9 µM [rising, partial curve]	18.4 µM [rising, single point]

SMILES	cell number change	AC50 [1]	AC50 [2]
NC(=O)Cn1cc(/C=N\NS(=O)(=O)c2ccc(F)cc2)c2ccccc21	-20.2%	6.51 µM [rising, single point]	
COc1ccc(-c2nnc(SCC(=O)Nc3cc(F)ccc3C)o2)cc1	-29.9%	0.0116 µM [rising, full curve, poor fit]	
COc1cc(-c2noc(C3CCCN(C(=O)c4c(F)cccc4F)C3)n2)cc(OC)c1OC (stereo unspecified)	-36.5%	5.8 µM [falling, single point]	25.9 µM [falling, single point]
CCN(CC)CCN(C(=O)/C=C/c1cccs1)c1nc2ccc(F)cc2s1	16.5%	6.51 µM [rising, single point]	
COc1ccccc1C(=O)NCC(=O)OCC(=O)Nc1ccc2[nH]c(=O)[nH]c2c1	-20.9%		0.146 µM [falling, full curve, poor fit]
Cc1ccc(NC(=O)c2nc[nH]c2C(=O)N2CCN(C(=O)OC(C)(C)C)CC2)cc1	-34.6%		4.61 µM [falling, single point]
CCC(C)c1ccc(OCc2ccc(C(=O)O)o2)cc1 (stereo unspecified)	10.6%	3.66 µM [rising, full curve]	2.06 µM [rising, single point]
Cc1ccc(P(C)(=O)c2ccc(C)cc2)cc1	31.4%		29.1 µM [rising, single point]
Cc1occc1-c1nnc(SCC(=O)N2CCOCC2)n1Cc1ccco1	-14.2%		
CCc1nc(NCCO)c(C#N)c2c1CCCC2	24.2%		
CCOC(=O)C1CCCN(C(=O)c2cc(=O)c3ccccc3o2)C1 (stereo unspecified)	-148%		
COc1ccc(-c2cc(-c3c(O)c(OC)c4occc4c3OC)[nH]n2)cc1	23.2%		
N#CCc1c(C#N)c(N)nc(N2CCN(Cc3ccc4c(c3)OCO4)CC2)c1C#N	12.9%		0.0291 µM [rising, full curve, poor fit]
Nc1cc(=O)[nH]c(SC/C=C/c2ccccc2)n1	-3.16%	0.00461 µM [falling, full curve, poor fit]	
COc1cccc(Nc2cc(C)nc3nc(C)nn23)c1	-1.34%	3.66 µM [falling, single point]	
CC(=O)c1ccc(OCCCC(=O)OCC(=O)Nc2ccc3[nH]c(=O)[nH]c3c2)cc1	5.09%	0.731 µM [falling, single point]	
COc1cccc2c1Oc1ncccc1N(C(=O)CCC(=O)NCc1ccc(F)cc1)C2	-19.2%	16.4 µM [rising, partial curve, poor fit]	
COc1ccc2c(c1)c1nnc(SCC(=O)N3CCCCC3C)nc1n2C (stereo unspecified)			0.366 µM [rising, full curve, poor fit]
O=C(CSc1nnnn1C1CCCCC1)N1CCCC1	4.98%		
COc1cc(CC(=O)OCC(=O)Nc2sccc2C(N)=O)cc(OC)c1OC	5.13%		
S=c1[nH]ncn1-c1ccccn1		3.66 µM [falling, full curve]	6.51 µM [falling, single point]

Laid out differently: entries from further up
SMILES,cell number change,AC50 [1],AC50 [2]
CCN(CC)CCN(C(=O)/C=C/c1cccs1)c1nc2ccc(F)cc2s1,16.5%,"6.51 µM [rising, single point]",
COc1ccccc1C(=O)NCC(=O)OCC(=O)Nc1ccc2[nH]c(=O)[nH]c2c1,-20.9%,,"0.146 µM [falling, full curve, poor fit]"
CCC(C)c1ccc(OCc2ccc(C(=O)O)o2)cc1 (stereo unspecified),10.6%,"3.66 µM [rising, full curve]","2.06 µM [rising, single point]"
Cc1ccc(P(C)(=O)c2ccc(C)cc2)cc1,31.4%,,"29.1 µM [rising, single point]"
COc1cccc(Nc2cc(C)nc3nc(C)nn23)c1,-1.34%,"3.66 µM [falling, single point]",
COc1ccc2c(c1)c1nnc(SCC(=O)N3CCCCC3C)nc1n2C (stereo unspecified),,,"0.366 µM [rising, full curve, poor fit]"

Continued.

SMILES	cell number change	AC50 [1]	AC50 [2]
CC(C)[C@H](NC(N)=O)C(=O)Nc1ccc(OCc2ccccc2)cc1	-6.96%		0.82 µM [falling, single point]
c1cncc(-c2nnc3n2C2(CCCCC2)Cc2ccccc2-3)c1	-21.1%	6.51 µM [rising, single point]	6.51 µM [rising, single point]
O=C(c1ccc(OCC2CCCO2)cc1)N1CCN(S(=O)(=O)c2cccc(F)c2)CC1 (stereo unspecified)	146%	3.26 µM [rising, partial curve, poor fit]	29.1 µM [rising, single point]
Cc1ccc2nc(Nc3nc(CSc4nnc(C)s4)cc(=O)[nH]3)nc(C)c2c1	-27.1%	0.00517 µM [falling, full curve, poor fit]	
CCOC(=O)c1[nH]c(=O)[nH]c1CSc1ccccn1	21.7%	29.1 µM [rising, single point]	
CCOc1ccc(C2N(c3cc(Cl)ccc3OC)C(=O)C3CCCN32)cc1OC (stereo unspecified)	38.5%	1.16 µM [falling, single point]	7.31 µM [rising, single point]
CC(=O)C[C@@H](O)CC(=O)[C@H]1OC(=O)CCCCCCc2ccccc21	20.4%		
CN(C)S(=O)(=O)c1ccc2oc(SCC(=O)c3c(N)n(C4CC4)c(=O)[nH]c3=O)nc2c1	-11.9%		
COc1ccc(CNCc2cc3c(cc2[N+](=O)[O-])OCO3)cc1		0.58 µM [falling, single point]	
O=[N+]([O-])c1cccc(/C=C/c2ccncc2)c1		9.2 µM [rising, partial curve]	2.06 µM [rising, single point]
CC(C)(C)c1ccc(C(=O)Nc2ccccc2NC(=O)c2ccco2)cc1	-16.5%		
COCCNS(=O)(=O)c1ccc(-c2ccc(S(=O)(=O)NCCOC)cc2)cc1	-7.3%		
CCC1Oc2ccc(C)cc2N(Cc2cccc(C)c2)C1=O (stereo unspecified)	-5.08%		
O=C(CSc1nnc2ccccn12)N1CCc2ccccc2C1	-16.7%		
CCOc1ccc(-n2c(SCc3ccc(C#N)cc3)nnc2-c2cccnc2)cc1	4.02%	29.1 µM [rising, single point]	
CC(=O)Nc1ccc(Nc2nc(C)c([N+](=O)[O-])c(Nc3ccc(NC(C)=O)cc3)n2)cc1	20.6%	1.84 µM [rising, full curve]	1.46 µM [rising, partial curve, poor fit]
C/C(Cl)=C\Cn1c(N2CCCC2)nc2c1c(=O)[nH]c(=O)n2C	-43.4%	29.1 µM [falling, single point]	8.2 µM [falling, single point]
Cn1cnnc1SCC(=O)Nc1ccc(Cl)c(S(=O)(=O)N2CCOCC2)c1	-99.3%		
C=CCn1c(C)cc(C2=NNC(=NCC)SC2)c1C	-25.3%	6.51 µM [rising, single point]	
Cc1ccc(C(C)C)c(OCC(=O)OCc2c(C)noc2C)c1	-21.9%	0.0259 µM [falling, full curve, poor fit]	
O/N=C/c1ccc(-c2ccccc2OC(F)(F)F)o1	-36.2%	29.1 µM [falling, single point]	16.4 µM [falling, single point]
